Binding data for two molecules are collected here from PMC11535364.

Chains of the proteins cited; added tags and fusions are not shown.
UniProt Q9DBL9: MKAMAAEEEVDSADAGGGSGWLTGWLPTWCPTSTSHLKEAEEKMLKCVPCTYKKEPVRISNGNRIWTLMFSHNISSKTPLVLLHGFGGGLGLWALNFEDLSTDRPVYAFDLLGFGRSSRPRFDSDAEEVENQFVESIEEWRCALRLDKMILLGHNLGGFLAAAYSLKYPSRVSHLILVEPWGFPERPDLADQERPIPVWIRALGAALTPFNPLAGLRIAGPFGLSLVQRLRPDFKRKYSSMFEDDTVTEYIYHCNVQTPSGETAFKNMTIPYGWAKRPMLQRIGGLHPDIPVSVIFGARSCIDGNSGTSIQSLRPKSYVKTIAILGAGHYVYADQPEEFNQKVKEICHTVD

This test concerns the target ABHD5 (mouse (endogenous in osteoblasts from mouse bone marrow MSCs)) (UniProt Q9DBL9). Briefly: co-IP; cells lysed in RIPA buffer (50 mM Tris-HCl pH 7.4, 150 mM NaCl, 1% NP-40, 0.5% sodium deoxycholate, 0.1% SDS, 1 mM EDTA); protein A/G agarose beads with anti-PLIN1 or anti-ABHD5 antibody, 4°C; nonspecific IgG as control; Western blot for PLIN1, ABHD5 or ATGL; for ATGL, osteoblasts with and without lipid droplet treatment. (Immunoblotting shows a protein as a band on a membrane.)

Results are given in words; binding and its absence hold for the method and conditions named. Binding seen in cells or lysates may run through a third protein. Some results given as binding are weak or reduced against the parent protein; the word gives no strength.

B1: Perilipin 1 (PLIN1) (protein, UniProt Q8CGN5 1-517)
chain: MSMNKGPTLLDGDLPEQENVLQRVLQLPVVSGTCECFQKTYNSTKEAHPLVASVCNAYEKGVQGASNLAAWSMEPVVRRLSTQFTAANELACRGLDHLEEKIPALQYPPEKIASELKGTISTRLRSARNSISVPIASTSDKVLGATLAGCELALGMAKETAEYAANTRVGRLASGGADLALGSIEKVVEFLLPPDKESAPSSGRQRTQKAPKAKPSLVRRVSTLANTLSRHTMQTTAWALKQGHSLAMWIPGVAPLSSLAQWGASAAMQVVSRRQSEVRVPWLHNLAASQDESHDDQTDTEGEETDDEEEEEESEAEENVLREVTALPNPRGLLGGVVHTVQNTLRNTISAVTWAPAAVLGTVGRILHLTPAQAVSSTKGRAMSLSDALKGVTDNVVDTVVHYVPLPRLSLMEPESEFRDIDNPSAEAERKGSGARPASPESTPRPGQPRGSLRSVRGLSAPSCPGLDDKTEASARPGFLAMPREKPARRVSDSFFRPSVMEPILGRAQYSQLRKKS
Consider B1, for which the binding entry was “binds”.

B2: ATGL (enzyme, UniProt Q8BJ56 1-486)
chain: MFPRETKWNISFAGCGFLGVYHIGVASCLREHAPFLVANATHIYGASAGALTATALVTGACLGEAGANIIEVSKEARKRFLGPLHPSFNLVKTIRGCLLKTLPADCHERANGRLGISLTRVSDGENVIISHFSSKDELIQANVCSTFIPVYCGLIPPTLQGVRYVDGGISDNLPLYELKNTITVSPFSGESDICPQDSSTNIHELRVTNTSIQFNLRNLYRLSKALFPPEPMVLREMCKQGYRDGLRFLRRNGLLNQPNPLLALPPVVPQEEDAEEAAVVEERAGEEDQLQPYRKDRILEHLPARLNEALLEACVEPKDLMTTLSNMLPVRLATAMMVPYTLPLESAVSFTIRLLEWLPDVPEDIRWMKEQTGSICQYLVMRAKRKLGDHLPSRLSEQVELRRAQSLPSVPLSCATYSEALPNWVRNNLSLGDALAKWEECQRQLLLGLFCTNVAFPPDALRMRAPASPTAADPATPQDPPGLPPC
B2: the binding result is “binds”.
